Record: PubChem BioAssay AID743454 (Peter MacCallum Cancer Centre, 2014)

- Assay: 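Search for knock-downs that restore vorinostat killing in resistant colon cancer cells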 (primary screen)
- System: human HCT116-VR colon cancer cells, selected for vorinostat resistance
- Reagent: siRNA pool against human genes, 40 nM siRNA pool
- Time to read-out: vorinostat for 24 h, read-out about 72 h after transfection
- Challenge: vorinostat at 2.5 µM final
- Read-out: 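Two measures, CellTiter-Fluor viability and luminescent caspase 3/7 activity, each as fold change against same-plate mock wells, mean of duplicates, then screen-wide robust z-score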
- Reading the numbers: viability robust z-score: higher = more viable cells than screen typical; caspase robust z-score: higher = more caspase 3/7 activity than screen typical
- Rule for the call: 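Hits are knock-downs in viability class RV1/RV2 or caspase class CA1/CA2, excluding ones that killed cells in the no-drug cell-count arm; hits then retested with single siRNAs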
Shown is an unselected part of about 18,000 deposited reagents. Over the whole deposit, 450 (2.5%) are marked active. 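Single biological run; no consistent viability z cut-off exists, so the class columns, not z-scores, define the calls.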 Entries without a mark were called inactive.

target gene	viability hit class	caspase hit class	viability robust z-score	caspase robust z-score
DEDD2 (GeneID 162989)	no change	no change	-0.82	4.11
METTL18 (GeneID 92342)	no change	no change	-1.14	-0.2
SLC35B4 (GeneID 84912)	no change	no change	0.04	4.73
ADISSP (GeneID 54976)	no change	no change	-0.81	1.23
CRHBP (GeneID 1393)	no change	no change	-0.67	2.73
KPNB1 (GeneID 3837)	no change	no change	-4.21	2.4
ANKRD12 (GeneID 23253)	no change	no change	1.5	-0.56
PIK3IP1 (GeneID 113791)	no change	no change	-1.06	2.26
RAI2 (GeneID 10742)	no change	no change	-0.6	0.16
DSC3 (GeneID 1825)	no change	no change	-0.7	1.04
SNRK (GeneID 54861)	no change	no change	-0.36	2.68
CA12 (GeneID 771)	no change	no change	1.15	-0.08
TTC23 (GeneID 64927)	no change	no change	0.32	-0.44
CNOT10 (GeneID 25904)	no change	no change	0.7	0.45
OR2AT4 (GeneID 341152)	no change	no change	0.12	-0.11
FNDC9 (GeneID 408263)	no change	no change	-1.33	0.74
BPI (GeneID 671)	no change	no change	-0.07	1.53
DBH (GeneID 1621)	no change	no change	-2.76	2.6
ABHD17A (GeneID 81926)	no change	no change	-2.33	4.06
KIR3DL1 (GeneID 3811)	no change	no change	0.56	-1.08
BCAN (GeneID 63827)	no change	no change	1.34	-0.48
RNASE2 (GeneID 6036)	no change	no change	0.89	1.52
NHEJ1 (GeneID 79840)	no change	no change	0.61	0.5
TBCK (GeneID 93627)	no change	no change	-0.29	-0.78
ARL15 (GeneID 54622)	no change	no change	0.88	-0.9
TLE6 (GeneID 79816)	no change	no change	1.3	-0.36
LOXL1 (GeneID 4016)	no change	no change	0.3	0.36
ADGRB2 (GeneID 576)	no change	no change	-0.14	-0.5

10 entries from above, set out differently.
target gene,viability hit class,caspase hit class,viability robust z-score,caspase robust z-score
SLC35B4 (GeneID 84912),no change,no change,0.04,4.73
ADISSP (GeneID 54976),no change,no change,-0.81,1.23
CRHBP (GeneID 1393),no change,no change,-0.67,2.73
KPNB1 (GeneID 3837),no change,no change,-4.21,2.4
ANKRD12 (GeneID 23253),no change,no change,1.5,-0.56
PIK3IP1 (GeneID 113791),no change,no change,-1.06,2.26
RAI2 (GeneID 10742),no change,no change,-0.6,0.16
DSC3 (GeneID 1825),no change,no change,-0.7,1.04
SNRK (GeneID 54861),no change,no change,-0.36,2.68
CA12 (GeneID 771),no change,no change,1.15,-0.08

Additional records follow:
target gene	viability hit class	caspase hit class	viability robust z-score	caspase robust z-score
RASD1 (GeneID 51655)	no change	no change	0.18	0.08
INSL4 (GeneID 3641)	no change	no change	1.96	-0.05
CTCFL (GeneID 140690)	no change	no change	-0.13	2.76
NOP56 (GeneID 10528)	no change	no change	-2.02	-0.96
PHF2 (GeneID 5253)	no change	no change	-0.16	-0.62
CDH18 (GeneID 1016)	no change	no change	-0.68	-1.41
COIL (GeneID 8161)	no change	no change	-1.44	-1.11
AP5M1 (GeneID 55745)	no change	no change	0.78	-0.84
FOXP1 (GeneID 27086)	no change	no change	-2.94	1.63
JARID2 (GeneID 3720)	no change	no change	-0.86	-0.98
FLT3 (GeneID 2322)	no change	no change	0.76	0.35
PRDM4 (GeneID 11108)	no change	no change	0.11	-1.12
POMC (GeneID 5443)	no change	no change	0.69	-0.25
CFAP61 (GeneID 26074)	no change	no change	0.6	0.19
TOP2A (GeneID 7153)	no change	no change	-2.58	1.55
AKAP3 (GeneID 10566)	no change	no change	-0.76	-0.92
SLIRP-OT1 (GeneID 283579)	no change	no change	0.94	1.85
OVCH2 (GeneID 341277)	no change	no change	-0.06	-0.56
SEMA6D (GeneID 80031)	no change	no change	0.44	-0.93
SYS1 (GeneID 90196)	no change	no change	-3.06	1.1
ATP2B4 (GeneID 493)	no change	no change	2.11	-0.57
IQCH (GeneID 64799)	no change	no change	0.6	-0.64
UGT1A6 (GeneID 54578)	no change	no change	0.8	-0.97
CRYBG2 (GeneID 55057)	no change	no change	-1.09	2.51
GTF2F2 (GeneID 2963)	no change	no change	1.17	1.77
GSTM5 (GeneID 2949)	no change	no change	-0.22	-0.61
NEUROD1 (GeneID 4760)	no change	no change	-0.51	0.5
KIAA1586 (GeneID 57691)	no change	no change	1.2	-1.06
ZBTB7B (GeneID 51043)	no change	no change	0.76	-0.02
TBC1D15 (GeneID 64786)	no change	no change	-0.52	-0.24
S100A8 (GeneID 6279)	no change	no change	-0.48	0.02
IRAK4 (GeneID 51135)	no change	no change	0.84	-0.01
SLC52A3 (GeneID 113278)	no change	no change	0.62	-0.28
SOX21 (GeneID 11166)	no change	no change	-0.57	-0.07
ATMIN (GeneID 23300)	no change	no change	-0.37	-1.51
DCAF6 (GeneID 55827)	no change	no change	0.36	-0.38
TMEM150C (GeneID 441027)	no change	no change	-0.04	-0.38
SMARCAD1 (GeneID 56916)	no change	no change	0.92	1
KSR2 (GeneID 283455)	no change	no change	-0.6	-0.18
RFLNA (GeneID 144347)	no change	no change	-2.54	1.75
PTS (GeneID 5805)	no change	no change	-0.13	-0.51
CAV3 (GeneID 859)	no change	no change	0.24	0.14
RASEF (GeneID 158158)	no change	no change	0.1	-0.64
ZMYND11 (GeneID 10771)	no change	no change	0.66	-0.46
BUB1 (GeneID 699)	no change	no change	0.62	0.44
